Measured data: PubChem BioAssay AID504808 (Drosophila RNAi Screening Center, 2011)
In all, the deposit lists about 21,000 reagents; below is an unselected part of those with a known target gene and a result. Over the whole deposit, 18 (0.084%) were called active. 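Raw counts without plate normalisation, one of two replicates; the ratio scores behind the calls were not deposited.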 Names joined by + are all predicted targets of the reagent. No sequences are given here. The record does not give: the amount of reagent, the time to read-out.

Test: 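Chromatin factors that keep E2F targets switched off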 (primary screen)
Cells: Drosophila S2 cells
Reagent: long dsRNA against Drosophila genes
Read-out: 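Firefly luciferase driven by E2F sites, normalised to Renilla luciferase on the same minimal promoter, measured by plate reader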
Scale: E2F firefly: higher = more E2F reporter activity; Renilla normaliser: higher = more normaliser reporter signal
Active means: 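a knock-down counted as active when the firefly/Renilla E2F signal rose above 50%, a threshold chosen arbitrarily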

no.	gene	dsRNA	E2F firefly, rep 1	Renilla normaliser, rep 1	activity call
1	Mcm5	DRSC16735	1.58e5	6879	inactive
2	Cpr65Eb	DRSC11026	90603	3965	inactive
3	ATPsynG	DRSC02928	1.37e5	4766	inactive
4	rtp	DRSC12132	79775	3461	inactive
5	Rtca	DRSC18517	1868	704	inactive
6	CtsL1	DRSC05462	1.34e5	4966	inactive
7	CtsL1	DRSC07363	2963	219	inactive
8	CG1142	DRSC12531	1.18e5	6123	inactive
9	AsnS	DRSC11468	88187	3728	inactive
10	Crys	DRSC03294	66095	3304	inactive
11	CG14654 (retired record)	DRSC12240	1.39e5	6786	inactive
12	Or67c	DRSC11242	1.20e5	6382	inactive
13	CG32679	DRSC17644	85361	2708	inactive
14	chico	DRSC03531	69358	3381	inactive
15	Prx6c + CG12896 + Prx6b	DRSC06148	1.42e5	4675	inactive
16	x16	DRSC00960	1.33e5	4886	inactive
17	x16	DRSC03638	79741	3876	inactive
18	MstProx	DRSC12458	62998	4687	inactive
19	MstProx	DRSC12601	1.49e5	7318	inactive
20	hkb	DRSC12377	1.12e5	6670	inactive
21	Ir68a	DRSC10599	1.20e5	6586	inactive
22	PPP4R2r	DRSC18695	1.32e5	6119	inactive
23	CG7366	DRSC10825	55364	3821	inactive
24	skd	DRSC11898	1.40e5	6318	inactive
25	Phb1	DRSC03563	80910	3649	inactive
26	CARPB	DRSC18437	8622	732	inactive
27	CARPB	DRSC18438	1.18e5	5766	inactive
28	CG9902	DRSC20212	2.19e5	9405	inactive
29	CG13331	DRSC06366	1.04e5	4329	inactive
30	CG12375	DRSC02163	90226	3293	inactive
31	ClC-a	DRSC14947	1.34e5	5632	inactive
32	ClC-a	DRSC14948	1.29e5	6045	inactive
33	ClC-a	DRSC16142	65207	3392	inactive
34	Eip63E	DRSC08658	61187	3254	inactive
35	neo	DRSC16316	1787	852	inactive
36	CG13321	DRSC06358	1.07e5	3748	inactive
37	NaPi-T	DRSC07476	1.12e5	4124	inactive
38	Dnah3	DRSC08130	1.26e5	4494	inactive
39	Dnah3	DRSC08513	1.09e5	4219	inactive
40	CG13074	DRSC09957	1.74e5	8256	inactive
41	CG15475	DRSC02486	1.13e5	4910	inactive
42	CG31274 + MESK4	DRSC13202	82220	2527	inactive
43	CG11608	DRSC14334	1.21e5	6154	inactive
44	mthl6	DRSC10234	95308	3955	inactive
45	CG43322	DRSC02280	1.44e5	4672	inactive
46	Mnr	DRSC20549	1.36e5	5222	inactive
47	Mnr	DRSC20550	1.38e5	5198	inactive
48	CG3961	DRSC10390	68971	3307	inactive
49	CG3961	DRSC10391	1.50e5	5932	inactive
50	qkr58E-3	DRSC04711	75797	3167	inactive
51	NetB	DRSC20262	8000	824	inactive
52	CG3634	DRSC11747	1.23e5	7889	inactive
53	Ktch	DRSC15094	1.34e5	6398	inactive
54	tgo	DRSC17077	64700	2975	inactive
55	CG9676	DRSC20204	1.62e5	6845	inactive
56	lqf	DRSC11363	67091	3522	inactive
57	Eig71Eg	DRSC11154	1.65e5	8084	inactive

Ordered by “E2F firefly, rep 1” (ascending): some entries from above.
gene	dsRNA	E2F firefly, rep 1	Renilla normaliser, rep 1	activity call
chico	DRSC03531	69358	3381	inactive
x16	DRSC00960	1.33e5	4886	inactive
Prx6c + CG12896 + Prx6b	DRSC06148	1.42e5	4675	inactive
